# Laboratory results published in PubChem BioAssay AID1487 (National Center for Advancing Translational Sciences (NCATS), 2009).
# “And” between values parts separate entries of the source, which are not always exact repeats. Equal entries are not always repeated. The list shows a part of the results. Further columns of the screen follow, without active or inactive calls. The list favours compounds with an active or inconclusive main result. Potencies come from curve fits of mixed quality, noted in brackets.
# Assay: qHTS Assay for Modulators of Lamin A Splicing
# Conditions: HeLa LMNA splicing GFP/RFP minigene ratio, 48 h
# Procedure, shortened: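 Read-out is the ratio of GFP to DsRed2 object intensity, acquired by 488 nm laser-scanning cytometry on HeLa lamin A-EGFP minigene reporter cells. Compound incubation 48 hrs at 37 °C in Opti-MEM with 2% FBS; DMSO 0.5% final.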
# [1] = measured here: GFP splicing reporter channel
# [2] = measured here: RFP viability control channel
Compound,AC50 [1],AC50 [2]
Cc1nc2ccc(NS(=O)(=O)c3ccc(C)c(C)c3)cc2s1,"2.51 µM [rising, full curve]","2.82 µM [rising, full curve]"
CCS(=O)(=O)N1CCC(C(=O)N2CCN(Cc3ccccc3)CC2)CC1,"0.0126 µM [falling, full curve]",–
CC1=C(c2ccc(C(C)C)cc2)S(=O)(=O)N=C1N1CCC(C(=O)NCCc2ccco2)CC1,"0.00891 µM [falling, full curve, poor fit]","0.0112 µM [falling, full curve, poor fit]"
CC(=O)O[C@](C)(CCC=C(C)C)C1CC=C(C)CC1 (some centres undefined),–,"20 µM [falling, single point]"
CCOc1cc(/C=C\[N+](=O)[O-])ccc1OCC(=O)Nc1ccccc1C,"3.55 µM [falling, full curve]","3.55 µM [falling, full curve]"
S=C(Nc1ccccc1Cl)N1CCN(Cc2ccccc2)CC1,"35.5 µM [rising, single point]","31.6 µM [rising, single point]"
Cc1ccc(C(=O)Nc2c(C)nc3ccccn3c2=O)cc1C,–,"0.316 µM [rising, full curve, poor fit]"
O=C(O)CCCN1C(=O)C2C3CCC(O3)C2C1=O (centres undefined),"5.62 µM [falling, single point]","0.0355 µM [rising, full curve, poor fit]"
CCN(c1cccc(C)c1)S(=O)(=O)c1cccc(C(=O)O)c1,"0.794 µM [rising, full curve, poor fit]",–
CO/N=C(/CS(=O)Cc1ccccc1Cl)c1ccc(Cl)cc1Cl (centres undefined),"2.51 µM [rising, single point]","17.8 µM [rising, single point]"
CCn1c2ccccc2c2nnc(SCCCn3c(=O)[nH]c4ccccc43)nc21,–,"11.2 µM [rising, partial curve]"
O=C(NC(=S)N1CCN(c2ccc(C(F)(F)F)cc2[N+](=O)[O-])CC1)c1cccs1,–,"22.4 µM [rising, single point]"
CC(C)(C)c1ccc(C(=O)NCC(c2ccc(Cl)cc2)N2CCOCC2)cc1 (centres undefined),"12.6 µM [falling, partial curve, poor fit]",–
C[C@@H](C(=O)Nc1ccc2ccccc2c1)[C@@H]1C[C@@]1(C)[C@@H](NC(=O)c1cnccn1)c1ccccc1,–,"4.47 µM [rising, full curve]"
C[C@]1(C(=O)NCCCNc2ncc(C(F)(F)F)cc2Cl)C=C[C@@H](Cc2ccccc2)N1C(=O)c1ccccc1,–,"15.8 µM [rising, single point]"
Cc1ccc2c(CC(=O)NNC(=O)c3ccccc3)coc2c1,"0.126 µM [rising, full curve, poor fit]",–
C=CCN(c1ccccc1C(=O)NCC(=O)O)S(=O)(=O)c1ccc(C)cc1,–,"0.398 µM [falling, full curve, poor fit]"

# 2 entries from above, bar-delimited:
Compound | AC50 [1] | AC50 [2]
CCn1c2ccccc2c2nnc(SCCCn3c(=O)[nH]c4ccccc43)nc21 | – | 11.2 µM [rising, partial curve]
O=C(NC(=S)N1CCN(c2ccc(C(F)(F)F)cc2[N+](=O)[O-])CC1)c1cccs1 | – | 22.4 µM [rising, single point]

# Additional compounds:

Compound,AC50 [1],AC50 [2]
O=S(=O)(c1ccc2ccccc2c1)N1CCN(C(=S)Nc2ccc(F)cc2)CC1,"12.6 µM [rising, single point]","17.8 µM [rising, partial curve]"
COCCN(Cc1cc2cc(C)ccc2n2nnnc12)C(=S)Nc1cccc(C)c1,–,"0.00891 µM [falling, full curve, poor fit]"
CCCCN1C(=O)c2ccc(C(=O)Nc3ccc(S(=O)(=O)N(C)C)cc3)cc2C1=O,–,"22.4 µM [rising, single point]"
CC(C)NC[C@H](O)c1ccc(O)c(O)c1,"0.02 µM [falling, full curve, poor fit]","8.91 µM [rising, partial curve, poor fit] and 3.16 µM [falling, single point] and 2.24 nM [falling, full curve, poor fit]"
Cc1ccccc1OCC(=O)NCC(c1ccc(Cl)cc1)N1CCCCC1 (centres undefined),"35.5 µM [falling, single point]","5.62 µM [rising, partial curve, poor fit]"
C(#CCN1CCC(Cc2ccccc2)CC1)COCCOCc1ccccc1,–,"22.4 µM [rising, partial curve, poor fit]"
CC(=O)OCC(=O)[C@@]12OC(C)(C)O[C@@H]1C[C@H]1[C@H]3C[C@H](F)C4=CC(=O)C=C[C@@]4(C)[C@]3(F)[C@H](O)C[C@@]12C,–,"0.00224 µM [rising, full curve, poor fit]"
COc1ccc(C)cc1NC(=O)Nc1cccc(OCc2cc(=O)n3ccc(C)cc3n2)c1,"3.98 µM [falling, partial curve, poor fit]",–
COc1ccc(NC(=O)c2cccs2)cc1NC(=O)c1ccco1,–,"31.6 µM [rising, single point]"
Cc1ccc(CN2CCc3c(OCc4ccc(F)cc4)cccc3C2=O)cc1,–,"2.82 µM [rising, full curve]"
CC(C)Cc1cc(CN2CCCC(CO)(Cc3cccc(Cl)c3)C2)[nH]n1 (centres undefined),"28.2 µM [falling, single point]",–
COc1ccc(N2CCN(S(=O)(=O)c3ccc(-c4ccno4)cc3OC)CC2)cc1,"0.316 µM [falling, full curve, poor fit]",–
CC(=O)Nc1sc2c(c1CN1CCN(c3ccc(F)cc3)CC1)CCCC2,–,"17.8 µM [rising, single point]"
COc1ccc(CNc2cc(-c3ccccc3Cl)ncn2)c(OC)c1,"12.6 µM [falling, partial curve]",–
CC(NC(=O)/C=C/c1ccccc1)c1ccccc1 (centres undefined),"0.0708 µM [rising, partial curve, poor fit]",–
CC12CCC(C(=O)Nc3nc4ccccc4s3)(OC1=O)C2(C)C (centres undefined),–,"14.1 µM [falling, partial curve, poor fit]"
Cc1ccc2nc(-c3ccncc3)cc(-c3ccccc3)c2c1,"17.8 µM [falling, single point]","17.8 µM [falling, partial curve]"
